Whole data set: some 33,000 sequences, median “E-score (-0.5 to 0.5)” near -0.0059, cut for the highest 2% near 0.26. The list shows a part of the results.
These sequences were tested against T1, Cin5 (UniProt P40917) (assay: PBM E-score (8-mer binding enrichment) (E-score (-0.5 to 0.5)); higher = stronger / more preferred TF binding). Conditions: protein concentration: 100 nM; construct: GST-full length.
T1 sequence: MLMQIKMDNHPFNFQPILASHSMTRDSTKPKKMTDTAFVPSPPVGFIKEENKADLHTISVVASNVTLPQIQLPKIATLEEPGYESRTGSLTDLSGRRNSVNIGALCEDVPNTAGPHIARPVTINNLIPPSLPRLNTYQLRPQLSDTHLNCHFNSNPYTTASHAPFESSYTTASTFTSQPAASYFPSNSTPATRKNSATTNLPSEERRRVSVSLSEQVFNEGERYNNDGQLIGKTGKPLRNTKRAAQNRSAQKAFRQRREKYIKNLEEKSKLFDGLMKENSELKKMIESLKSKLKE
Method in brief: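 Each ungapped eight-base word and its reverse complement, pooled, received an E-score from the Universal PBM Analysis Suite. Underlying scans, normalised with masliner, recorded fluorescent anti-GST bound to GST-tagged yeast transcription factors. These were applied at about 100-200 nM to universal all-10-mer Agilent arrays double-stranded by primer extension.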

Sequence | PBM E-score
GATGTACA | 0.116
GACTGAAC | -0.179
CGTCAGGA | -0.106
ATCGAGGC | -0.0936
CAACGATG | -0.0341
GATGACAC | 0.0142
ACGCCCGC | -0.11
AACTTTCG | 0.0692
AATGGATA | 0.0623
AGGAAAAG | 0.0753
GTCTGTCA | 0.0444
CCCTCTGA | -0.231
GTTCAGCA | -0.042
CATCGTCA | 0.0263
GTGGGCCA | -0.142
ACTGTTAA | -0.0114
CTCTAGAG | -0.0707
AATCTGCG | 0.117
AACAGTAA | 0.164
ACTAGAGT | -0.0346
AAAAAGTA | 0.129
CCCTTTAC | 0.0116

Sequence | PBM E-score
ACAGCTCT | -0.28
ACCGCGGT | 0.00914
ATATATCC | 0.224
CCCTTCCG | -0.185
AGGTAGAT | -0.0424
CATTAGGA | -0.0329
GGGTGGAA | 0.0356
GGTCGTAC | -0.0451
GAAGACTC | -0.229
TATTAAAA | 0.205
GTGCTGAA | -0.0928
GTCCCGAC | -0.103
ACCGACGA | -0.137
CTATCCTC | -0.0993
ATATCGGC | 0.0633
TACCAGTA | 0.0926
GGAAGTAC | 0.0641
GACGTCGC | -0.165
CATGGGCC | -0.113
CAAGGTTC | -0.222
CCCAACTC | 0.158
AAAACCTT | -0.188

Sequence | PBM E-score
GACAAGAA | 0.17
AAAAGATG | 0.123
CAGAACCA | -0.0997
CCGAGATC | 0.0873
GATCGTAA | 0.116
CGCCAGAG | -0.206
CTGCAAAA | 0.0428
AACGCGAT | 0.0765
ATTAGAAT | 0.108
ACGCATTG | -0.0579
ATTACAGC | -0.125
ACAACTCG | 0.113
ATCGAACC | 0.0747
ACAGTACC | -0.0968
CAGGCATC | -0.115
CCAAAAGC | -0.0692
AGCATACC | 0.0457
AGGATTAT | -0.0477
GCCTTATA | -0.0112
AATGATCT | 0.118
CGGATGGA | 0.0569
CCTTATAA | 0.122

Sequence | PBM E-score
CGTCAAAG | -0.0995
TCAGCGGA | 0.104
CATTCATC | 0.119
CGAAAACG | -0.0579
GTGTGGGA | 0.0452
AATATGTG | 0.197
CACAGTCA | -0.0863
ACGTACCC | -0.00949
CGTTTCAG | 0.0885
AGCATGAG | 0.0254
CATTTACC | 0.0667
CGAGTATC | -0.108
GCGCCAGC | -0.297
ACAGGGGG | -0.407
AAATGGAT | 0.111
CAACCAGC | -0.0666
ATCCCGGA | 0.154
GGCTGATA | 0.0385
AGGAGCGC | -0.165
ACGAGCGG | -0.0674

As a working copy, some entries already given.
Sequence | PBM E-score
ACGTACCC | -0.00949
CGTTTCAG | 0.0885
AGCATGAG | 0.0254
CATTTACC | 0.0667
CGAGTATC | -0.108

From the supplement of paper PMC3334620
